The test has as its target Cav-1 ΔCSD (UniProt Q03135). Put plainly: co-IP; H9c2 cells co-transfected with Cav-1 and TLR9 (wild type or mutant), lysates 24 h after transfection, immunoprecipitation with anti-Cav-1 or anti-TLR9 antibodies, immunoblot.

Amino acid sequences for entries named in this document (tags omitted). A change or cut given only in a name is not applied to a line headed by its entry. Residues count along the entry.
UniProt Q03135: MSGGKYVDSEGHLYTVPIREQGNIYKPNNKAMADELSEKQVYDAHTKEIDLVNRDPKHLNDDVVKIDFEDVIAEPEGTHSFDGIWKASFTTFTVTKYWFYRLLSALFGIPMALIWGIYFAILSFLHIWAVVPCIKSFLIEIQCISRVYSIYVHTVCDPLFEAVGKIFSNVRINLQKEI
UniProt Q9NR96, residues 26-1032: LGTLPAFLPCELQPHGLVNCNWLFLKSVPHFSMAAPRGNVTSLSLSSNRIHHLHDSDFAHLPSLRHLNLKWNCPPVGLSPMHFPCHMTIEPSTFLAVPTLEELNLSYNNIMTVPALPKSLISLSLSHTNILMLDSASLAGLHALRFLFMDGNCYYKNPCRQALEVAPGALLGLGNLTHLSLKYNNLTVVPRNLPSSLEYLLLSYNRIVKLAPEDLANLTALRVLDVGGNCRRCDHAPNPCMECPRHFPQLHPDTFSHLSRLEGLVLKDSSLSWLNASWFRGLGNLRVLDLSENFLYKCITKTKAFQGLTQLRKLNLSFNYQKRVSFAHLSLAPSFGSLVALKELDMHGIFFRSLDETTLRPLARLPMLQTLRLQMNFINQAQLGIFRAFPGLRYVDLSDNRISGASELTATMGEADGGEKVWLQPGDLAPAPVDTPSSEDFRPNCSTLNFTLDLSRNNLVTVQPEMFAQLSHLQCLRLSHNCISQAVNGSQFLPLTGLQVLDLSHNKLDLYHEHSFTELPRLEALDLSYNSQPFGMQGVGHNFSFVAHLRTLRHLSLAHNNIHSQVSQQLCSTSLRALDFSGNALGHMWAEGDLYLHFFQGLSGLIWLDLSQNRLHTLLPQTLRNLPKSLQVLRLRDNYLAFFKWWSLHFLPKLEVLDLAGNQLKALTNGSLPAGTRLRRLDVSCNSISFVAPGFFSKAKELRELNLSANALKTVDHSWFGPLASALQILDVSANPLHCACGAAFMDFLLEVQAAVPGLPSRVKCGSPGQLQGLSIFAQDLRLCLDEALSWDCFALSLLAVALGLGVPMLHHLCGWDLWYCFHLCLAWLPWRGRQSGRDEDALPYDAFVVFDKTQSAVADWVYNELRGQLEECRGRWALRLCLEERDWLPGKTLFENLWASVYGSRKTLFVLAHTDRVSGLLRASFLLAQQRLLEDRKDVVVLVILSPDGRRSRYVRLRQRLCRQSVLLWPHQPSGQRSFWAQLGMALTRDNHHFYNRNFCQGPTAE

These are yes or no findings as the source states them, for the method shown. In cells and extracts the contact can be indirect.

As for “TLR9 WT (from UniProt Q9NR96 26-1032) (receptor)”, the binding entry is reported as “no binding”.

Source of the values: article PMC6735515.
